Measured values reported in doi:10.1101/2025.03.27.645700.

Chains of the proteins cited; added tags and fusions are not shown. Lines headed by an entry give the natural chain unless they say otherwise; changes in a name come on top.
UniProt A1XBS5: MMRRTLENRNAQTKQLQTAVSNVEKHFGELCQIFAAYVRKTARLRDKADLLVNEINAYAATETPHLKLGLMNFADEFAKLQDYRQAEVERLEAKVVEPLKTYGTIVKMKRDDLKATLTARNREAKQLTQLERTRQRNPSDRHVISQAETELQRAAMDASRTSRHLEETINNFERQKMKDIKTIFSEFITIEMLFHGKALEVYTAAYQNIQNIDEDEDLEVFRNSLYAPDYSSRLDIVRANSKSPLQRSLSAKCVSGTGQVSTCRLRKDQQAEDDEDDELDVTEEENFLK

What was measured:
[1] = biological target: T1, HsRsg1 (human) (UniProt Q9BU20); experiment: pull-down
T1 sequence: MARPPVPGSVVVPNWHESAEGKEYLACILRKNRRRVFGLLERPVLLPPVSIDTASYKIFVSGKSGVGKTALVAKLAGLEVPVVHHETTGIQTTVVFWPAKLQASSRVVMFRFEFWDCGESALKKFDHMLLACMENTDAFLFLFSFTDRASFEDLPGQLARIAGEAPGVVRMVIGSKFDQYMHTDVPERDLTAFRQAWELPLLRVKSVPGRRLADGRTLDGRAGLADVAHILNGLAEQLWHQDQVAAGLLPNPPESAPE

[2] = biological target: T2, XlCcz1 (Xenopus laevis) (UniProt Q7T102); experiment: pull-down
T2 sequence: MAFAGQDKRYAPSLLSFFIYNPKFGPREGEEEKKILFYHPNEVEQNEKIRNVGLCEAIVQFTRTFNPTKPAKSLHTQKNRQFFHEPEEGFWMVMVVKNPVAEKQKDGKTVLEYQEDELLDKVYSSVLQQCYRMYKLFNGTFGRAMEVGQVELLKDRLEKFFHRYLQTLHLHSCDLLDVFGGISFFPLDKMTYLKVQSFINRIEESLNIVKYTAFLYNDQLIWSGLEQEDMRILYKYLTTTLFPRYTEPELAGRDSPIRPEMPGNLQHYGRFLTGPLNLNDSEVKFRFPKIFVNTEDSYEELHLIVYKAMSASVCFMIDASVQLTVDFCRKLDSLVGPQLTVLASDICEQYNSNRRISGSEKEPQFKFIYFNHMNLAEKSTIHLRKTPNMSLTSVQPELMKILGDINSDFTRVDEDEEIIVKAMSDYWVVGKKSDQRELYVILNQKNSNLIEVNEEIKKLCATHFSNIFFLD

[3] = biological target: HsCiBAR1 (human) (UniProt A1XBS5); experiment: co-sedimentation
[4] = biological target: XlMon1 (Xenopus laevis); experiment: pull-down

## HsCiBAR1 (from UniProt A1XBS5)
[1]
  binding: binds

## XlBulli (Xenopus laevis)
[2]
  binding: binds

B1: HsRsg1 (protein, UniProt Q9BU20 1-258)
chain: T1 sequence
[3]
  binding: binds

B2: XlCcz1 (protein, UniProt Q7T102 1-471)
chain: T2 sequence
[4]
  binding: binds

These are yes or no findings as the source states them, for the method shown. Binding can be weak; no strength is given. For some of these results: In cells and extracts the contact can be indirect.
